Laboratory results as given in article doi:10.1101/2022.04.01.486731.
These are yes or no findings as the source states them, for the method shown. Binding seen in cells or lysates may run through a third protein.

Target: T1, NIMA related kinase 1 (Nek1), Q96PY6
T1 chain: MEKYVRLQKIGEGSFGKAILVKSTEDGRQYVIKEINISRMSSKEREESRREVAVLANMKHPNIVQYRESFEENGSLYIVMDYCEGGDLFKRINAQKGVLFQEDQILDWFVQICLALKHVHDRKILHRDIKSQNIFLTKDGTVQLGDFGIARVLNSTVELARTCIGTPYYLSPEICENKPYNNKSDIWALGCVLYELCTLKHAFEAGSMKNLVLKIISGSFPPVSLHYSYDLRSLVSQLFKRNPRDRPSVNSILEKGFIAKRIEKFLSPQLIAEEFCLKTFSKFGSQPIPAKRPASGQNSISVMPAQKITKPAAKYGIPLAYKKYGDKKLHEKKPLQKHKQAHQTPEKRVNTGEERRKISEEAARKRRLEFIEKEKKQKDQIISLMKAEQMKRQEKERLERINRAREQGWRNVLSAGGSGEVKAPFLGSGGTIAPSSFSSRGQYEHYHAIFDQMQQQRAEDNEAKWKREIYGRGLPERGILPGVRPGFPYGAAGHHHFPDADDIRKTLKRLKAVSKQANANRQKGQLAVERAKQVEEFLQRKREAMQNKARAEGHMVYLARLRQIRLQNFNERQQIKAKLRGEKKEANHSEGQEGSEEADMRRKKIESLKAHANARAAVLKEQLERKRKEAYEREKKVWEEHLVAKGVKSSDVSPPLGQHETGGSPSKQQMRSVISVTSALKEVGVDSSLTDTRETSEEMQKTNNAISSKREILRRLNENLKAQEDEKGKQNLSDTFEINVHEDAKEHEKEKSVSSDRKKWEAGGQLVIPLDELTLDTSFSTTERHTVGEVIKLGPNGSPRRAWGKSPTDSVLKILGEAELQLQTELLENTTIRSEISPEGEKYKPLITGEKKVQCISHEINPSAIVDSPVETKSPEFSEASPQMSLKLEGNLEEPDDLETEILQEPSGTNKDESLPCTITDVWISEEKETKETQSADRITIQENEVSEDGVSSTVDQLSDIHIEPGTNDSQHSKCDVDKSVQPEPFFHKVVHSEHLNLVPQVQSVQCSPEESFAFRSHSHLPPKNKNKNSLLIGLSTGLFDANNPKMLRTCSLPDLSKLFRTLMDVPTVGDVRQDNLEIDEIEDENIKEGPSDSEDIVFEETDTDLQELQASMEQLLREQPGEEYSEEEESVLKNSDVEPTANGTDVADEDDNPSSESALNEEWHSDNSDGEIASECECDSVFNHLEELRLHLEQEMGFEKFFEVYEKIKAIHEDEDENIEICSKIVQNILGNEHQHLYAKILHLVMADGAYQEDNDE
Test: co-IP
Settings: remark: other sources report otherwise

B1: Rad54, Q92698 1-747 (protein)
chain: MRRSLAPSQLAKRKPEGRSCDDEDWQPGLVTPRKRKSSSETQIQECFLSPFRKPLSQLTNQPPCLDSSQHEAFIRSILSKPFKVPIPNYQGPLGSRALGLKRAGVRRALHDPLEKDALVLYEPPPLSAHDQLKLDKEKLPVHVVVDPILSKVLRPHQREGVKFLWECVTSRRIPGSHGCIMADEMGLGKTLQCITLMWTLLRQSPECKPEIDKAVVVSPSSLVKNWYNEVGKWLGGRIQPLAIDGGSKDEIDQKLEGFMNQRGARVSSPILIISYETFRLHVGVLQKGSVGLVICDEGHRLKNSENQTYQALDSLNTSRRVLISGTPIQNDLLEYFSLVHFVNSGILGTAHEFKKHFELPILKGRDAAASEADRQLGEERLRELTSIVNRCLIRRTSDILSKYLPVKIEQVVCCRLTPLQTELYKRFLRQAKPAEELLEGKMSVSSLSSITSLKKLCNHPALIYDKCVEEEDGFVGALDLFPPGYSSKALEPQLSGKMLVLDYILAVTRSRSSDKVVLVSNYTQTLDLFEKLCRARRYLYVRLDGTMSIKKRAKVVERFNSPSSPDFVFMLSSKAGGCGLNLIGANRLVMFDPDWNPANDEQAMARVWRDGQKKTCYIYRLLSAGTIEEKIFQRQSHKKALSSCVVDEEQDVERHFSLGELKELFILDEASLSDTHDRLHCRRCVNSRQIRPPPDGSDCTSDLAGWNHCTDKWGLRDEVLQAAWDAASTAITFVFHQRSHEEQRGLR
  binding: no binding
